Reference: PubChem BioAssay AID652259 (Drosophila RNAi Screening Center, 2013)
Test: 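Knock-downs that push a Wingless-driven reporter up or down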 (primary screen). System: Drosophila clone 8 imaginal disc epithelial cells. Knock-down reagent: long dsRNA against Drosophila genes. Challenge: pathway stimulated by co-transfected Wingless expression plasmid. Read-out: 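Dual luciferase reads per well after Wingless plasmid stimulation: reporter firefly light and Renilla control light; activity is firefly divided by Renilla, a ratio not deposited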. Reading the numbers: firefly reporter light: higher = more Wg reporter light, before normalisation; Renilla control light: higher = more transfected or surviving cells. Active means: 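Strong candidates differ from their plate mean by at least two out of four per-plate statistical tests; weak candidates meet just one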. Calls: active = candidate regulator (raises or lowers reporter); inactive = not a candidate.
The screen tested about 22,000 reagents; this is a random part of those with a known target gene and a result. Over the whole deposit, 233 (1.1%) got an active call. 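Light values are raw, unnormalised plate reads; the ratio scores behind the reporter calls were not deposited.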 Reagents against one gene are numbered here. A plus sign joins genes that one reagent is predicted to hit. Not stated in the record: the amount of reagent, the time to read-out, the dose of the treatment.

| gene | reagent no. | reporter change call, replicate 1 | firefly reporter light, replicate 1 | firefly reporter light, replicate 2 | Renilla control light, replicate 1 | Renilla control light, replicate 2 | outcome |
| --- | --- | --- | --- | --- | --- | --- | --- |
| mib2 (mind bomb 2) | 1 | – | 5037 | – | 1027 | – | inactive |
| CysRS-m (Cysteinyl-tRNA synthetase, mitochondrial) | 1 | – | 9740 | – | 2985 | – | inactive |
| CG11566 (retired record) + stg1 | 1 | – | 18336 | – | 3404 | – | inactive |
| CG11566 (retired record) + stg1 | 2 | – | 16176 | – | 8853 | – | inactive |
| CG11566 (retired record) + stg1 | 3 | – | 22050 | – | 9206 | – | inactive |
| CG11566 (retired record) + stg1 | 4 | – | 26147 | – | 8829 | – | inactive |
| CG18281 | 1 | – | 8979 | – | 4320 | – | inactive |
| orb (oo18 RNA-binding protein) | 1 | – | 1760 | 4180 | 243 | 449 | inactive |
| Xport-A + Xport-B | 1 | – | 2620 | 7910 | 1250 | 2026 | inactive |
| ng3 (new glue 3) | 1 | – | 16752 | – | 12176 | – | inactive |
| CG43610 | 1 | – | 23312 | – | 9397 | – | inactive |
| CG11663 | 1 | – | 20660 | – | 8048 | – | inactive |
| IFT57 (Intraflagellar transport 57) | 1 | – | 2530 | 6976 | 1114 | 1008 | inactive |
| CG8461 | 1 | – | 9354 | – | 4586 | – | inactive |
| gpp (grappa) | 1 | – | 7491 | – | 2477 | – | inactive |
| gpp (grappa) | 2 | – | 7440 | – | 1259 | – | inactive |
| AdipoR (Adiponectin receptor) | 1 | – | 3035 | 6721 | 1360 | 1840 | inactive |
| CG14218 | 1 | – | 20833 | – | 10802 | – | inactive |
| CG14971 | 1 | – | 5048 | – | 1722 | – | inactive |
| MtnA (Metallothionein A) | 1 | – | 7.13e5 | 6.50e5 | 3.66e5 | 2.39e5 | inactive |
| Boot (Bootlegger) | 1 | – | 2006 | 5308 | 736 | 2508 | inactive |
| CG17211 | 1 | – | 2937 | 8924 | 1170 | 3010 | inactive |
| rumpel | 1 | – | 14868 | – | 8025 | – | inactive |
| CG2209 | 1 | – | 18373 | – | 8455 | – | inactive |
| mRpL49 (mitochondrial ribosomal protein L49) | 1 | – | 17754 | – | 8512 | – | inactive |
| Dhrs4 (Dehydrogenase/reductase 4) | 1 | – | 5122 | – | 2132 | – | inactive |
| CG4661 | 1 | – | 14150 | – | 7323 | – | inactive |
| Ir7a (Ionotropic receptor 7a) | 1 | – | 21335 | – | 10141 | – | inactive |

Already shown: an excerpt of the list.
| gene | reagent no. | reporter change call, replicate 1 | firefly reporter light, replicate 1 | firefly reporter light, replicate 2 | Renilla control light, replicate 1 | Renilla control light, replicate 2 | outcome |
| --- | --- | --- | --- | --- | --- | --- | --- |
| Xport-A + Xport-B | 1 | – | 2620 | 7910 | 1250 | 2026 | inactive |
| ng3 (new glue 3) | 1 | – | 16752 | – | 12176 | – | inactive |
| CG43610 | 1 | – | 23312 | – | 9397 | – | inactive |
| CG11663 | 1 | – | 20660 | – | 8048 | – | inactive |
| IFT57 (Intraflagellar transport 57) | 1 | – | 2530 | 6976 | 1114 | 1008 | inactive |
| CG8461 | 1 | – | 9354 | – | 4586 | – | inactive |
| gpp (grappa) | 1 | – | 7491 | – | 2477 | – | inactive |
| gpp (grappa) | 2 | – | 7440 | – | 1259 | – | inactive |
| AdipoR (Adiponectin receptor) | 1 | – | 3035 | 6721 | 1360 | 1840 | inactive |
| CG14218 | 1 | – | 20833 | – | 10802 | – | inactive |
| CG14971 | 1 | – | 5048 | – | 1722 | – | inactive |

More results follow:
| gene | reagent no. | reporter change call, replicate 1 | firefly reporter light, replicate 1 | firefly reporter light, replicate 2 | Renilla control light, replicate 1 | Renilla control light, replicate 2 | outcome |
| --- | --- | --- | --- | --- | --- | --- | --- |
| Tat (Tyrosine aminotransferase) | 1 | – | 21622 | – | 7908 | – | inactive |
| Ntf-2r (Nuclear transport factor-2-related) | 1 | – | 3287 | 7636 | 632 | 1620 | inactive |
| CG11837 | 1 | – | 2123 | 6653 | 1329 | 666 | inactive |
| CG7912 | 1 | – | 7200 | – | 3190 | – | inactive |
| Cp38 (Chorion protein 38) | 1 | – | 23094 | – | 11618 | – | inactive |
| CG6426 | 1 | – | 7552 | – | 2916 | – | inactive |
| Ror | 1 | – | 2995 | 8067 | 1067 | 4321 | inactive |
| thr (three rows) | 1 | – | 8711 | – | 1177 | – | inactive |
| CG1927 | 1 | – | 15436 | – | 4660 | – | inactive |
| bel (belle) | 1 | Wg reporter activity raised | 22752 | – | 2192 | – | active |
| CG15742 | 1 | – | 3172 | 7490 | 1165 | 2753 | inactive |
| san (separation anxiety) | 1 | – | 8400 | – | 3152 | – | inactive |
| mud (mushroom body defect) | 1 | – | 4010 | – | 1099 | – | inactive |
| Jon99Ci (Jonah 99Ci) | 1 | – | 8253 | – | 3193 | – | inactive |
| Jupiter | 1 | – | 5580 | – | 1922 | – | inactive |
| Jupiter | 2 | – | 18432 | – | 4176 | – | inactive |
| Jupiter | 3 | – | 16288 | – | 3661 | – | inactive |
| CG13186 | 1 | – | 8281 | – | 4154 | – | inactive |
| SCAP (SREBP cleavage activating protein) | 1 | – | 2333 | 4849 | 722 | 2384 | inactive |
| SCAP (SREBP cleavage activating protein) | 2 | – | 3245 | 8464 | 1184 | 3239 | inactive |
| CG1360 | 1 | – | 3049 | 4855 | 904 | 2077 | inactive |
| RapGAP1 (Rap GTPase activating protein 1) | 1 | – | 2162 | 5536 | 196 | 2837 | inactive |
| RapGAP1 (Rap GTPase activating protein 1) | 2 | – | 2492 | 5408 | 457 | 2560 | inactive |
| RapGAP1 (Rap GTPase activating protein 1) | 3 | – | 2205 | 6122 | 360 | 3082 | inactive |
| RapGAP1 (Rap GTPase activating protein 1) | 4 | – | 11201 | – | 4400 | – | inactive |
| CG14621 | 1 | – | 9239 | – | 7661 | – | inactive |
| Vps20 (Vacuolar protein sorting 20) | 1 | – | 2261 | 8141 | 578 | 2391 | inactive |
| Cpr23B (Cuticular protein 23B) | 1 | – | 3504 | 7732 | 1144 | 3016 | inactive |
| 7B2 | 1 | – | 12945 | – | 4083 | – | inactive |
| Idi (Isopentenyl-diphosphate delta isomerase) | 1 | – | 3500 | 5206 | 1427 | 2000 | inactive |
| IA-2 (IA-2 protein tyrosine phosphatase) | 1 | – | 3963 | 14075 | 1243 | 6059 | inactive |
| IA-2 (IA-2 protein tyrosine phosphatase) | 2 | – | 12328 | – | 4984 | – | inactive |
| CG12917 | 1 | – | 2166 | 5382 | 657 | 2420 | inactive |
| AP-1gamma (Adaptor Protein complex 1, gamma subunit) | 1 | – | 15239 | – | 10907 | – | inactive |
| tst (twister) | 1 | – | 1691 | 4059 | 1381 | 1430 | inactive |
| CG16986 | 1 | – | 7453 | – | 3408 | – | inactive |
| Mcad (Medium-chain acyl-CoA dehydrogenase) | 1 | – | 5204 | – | 2151 | – | inactive |
| Wdr92 (WD repeat domain 92) | 1 | – | 5158 | – | 2694 | – | inactive |
| CG30177 | 1 | – | 5.23e5 | 6.04e5 | 1.97e5 | 2.15e5 | inactive |
| Eglp2 (Entomoglyceroporin 2) | 1 | – | 11929 | – | 3049 | – | inactive |
| PolA1 (DNA polymerase alpha subunit 1) | 1 | – | 1796 | 4560 | 960 | 2220 | inactive |
| CG3376 | 1 | – | 16458 | – | 1719 | – | inactive |
| RpS9 (Ribosomal protein S9) | 1 | – | 4944 | – | 2112 | – | inactive |
| CG12402 | 1 | – | 14485 | – | 3312 | – | inactive |
| GstO3 (Glutathione S transferase O3) | 1 | – | 1185 | 5948 | 925 | 2517 | inactive |
